Data from the supplement of paper PMC10849652.
This is one part of the list.

Sequences of proteins named here, by UniProt entry; tags and fusion partners are left off. A change or cut given only in a name is not applied to a line headed by its entry.
UniProt O95568: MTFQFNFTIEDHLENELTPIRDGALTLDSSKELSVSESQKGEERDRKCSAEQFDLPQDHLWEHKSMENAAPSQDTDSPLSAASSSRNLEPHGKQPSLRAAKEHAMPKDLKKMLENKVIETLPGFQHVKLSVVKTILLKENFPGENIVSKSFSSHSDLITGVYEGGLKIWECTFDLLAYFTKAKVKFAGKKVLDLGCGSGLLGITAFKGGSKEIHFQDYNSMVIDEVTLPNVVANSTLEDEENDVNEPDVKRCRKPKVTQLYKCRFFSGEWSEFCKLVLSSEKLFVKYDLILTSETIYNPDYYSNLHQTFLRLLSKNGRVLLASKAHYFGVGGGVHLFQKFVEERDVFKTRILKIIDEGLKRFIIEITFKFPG
UniProt P55082: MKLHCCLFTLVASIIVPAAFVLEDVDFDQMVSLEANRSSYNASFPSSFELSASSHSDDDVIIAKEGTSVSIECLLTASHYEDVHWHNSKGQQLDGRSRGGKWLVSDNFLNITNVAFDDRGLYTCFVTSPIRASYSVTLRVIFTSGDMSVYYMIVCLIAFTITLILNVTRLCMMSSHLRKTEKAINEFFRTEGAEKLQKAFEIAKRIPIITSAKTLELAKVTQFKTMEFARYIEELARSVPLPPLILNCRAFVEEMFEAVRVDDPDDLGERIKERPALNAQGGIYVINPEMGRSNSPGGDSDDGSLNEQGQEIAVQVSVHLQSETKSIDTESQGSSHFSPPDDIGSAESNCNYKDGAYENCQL
UniProt Q96G25: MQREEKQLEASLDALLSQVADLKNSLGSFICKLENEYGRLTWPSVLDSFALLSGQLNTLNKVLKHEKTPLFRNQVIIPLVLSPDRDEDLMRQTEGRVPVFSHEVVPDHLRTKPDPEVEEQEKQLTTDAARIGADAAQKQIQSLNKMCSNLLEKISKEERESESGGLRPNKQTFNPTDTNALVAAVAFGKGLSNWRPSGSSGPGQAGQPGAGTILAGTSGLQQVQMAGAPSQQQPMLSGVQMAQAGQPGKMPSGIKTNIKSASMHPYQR
UniProt Q8NE86: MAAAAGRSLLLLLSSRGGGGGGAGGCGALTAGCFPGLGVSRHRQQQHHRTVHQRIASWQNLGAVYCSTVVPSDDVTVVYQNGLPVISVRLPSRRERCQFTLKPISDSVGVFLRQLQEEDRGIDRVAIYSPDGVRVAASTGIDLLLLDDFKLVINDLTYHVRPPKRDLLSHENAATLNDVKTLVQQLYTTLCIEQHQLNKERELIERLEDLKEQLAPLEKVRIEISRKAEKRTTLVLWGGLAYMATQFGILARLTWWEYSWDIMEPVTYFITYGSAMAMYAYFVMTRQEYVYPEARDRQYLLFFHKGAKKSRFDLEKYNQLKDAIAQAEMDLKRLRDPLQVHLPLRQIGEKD
UniProt Q6P1Q9: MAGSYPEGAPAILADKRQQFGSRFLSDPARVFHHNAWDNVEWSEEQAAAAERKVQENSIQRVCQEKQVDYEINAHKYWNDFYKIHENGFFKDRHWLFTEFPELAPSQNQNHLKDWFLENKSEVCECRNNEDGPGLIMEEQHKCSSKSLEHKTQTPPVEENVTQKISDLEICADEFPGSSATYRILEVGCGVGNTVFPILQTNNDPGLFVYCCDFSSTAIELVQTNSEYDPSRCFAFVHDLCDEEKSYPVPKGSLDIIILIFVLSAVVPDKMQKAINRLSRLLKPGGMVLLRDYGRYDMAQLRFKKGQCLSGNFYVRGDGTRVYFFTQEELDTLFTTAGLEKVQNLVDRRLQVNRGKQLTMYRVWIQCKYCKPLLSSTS
UniProt Q6N075: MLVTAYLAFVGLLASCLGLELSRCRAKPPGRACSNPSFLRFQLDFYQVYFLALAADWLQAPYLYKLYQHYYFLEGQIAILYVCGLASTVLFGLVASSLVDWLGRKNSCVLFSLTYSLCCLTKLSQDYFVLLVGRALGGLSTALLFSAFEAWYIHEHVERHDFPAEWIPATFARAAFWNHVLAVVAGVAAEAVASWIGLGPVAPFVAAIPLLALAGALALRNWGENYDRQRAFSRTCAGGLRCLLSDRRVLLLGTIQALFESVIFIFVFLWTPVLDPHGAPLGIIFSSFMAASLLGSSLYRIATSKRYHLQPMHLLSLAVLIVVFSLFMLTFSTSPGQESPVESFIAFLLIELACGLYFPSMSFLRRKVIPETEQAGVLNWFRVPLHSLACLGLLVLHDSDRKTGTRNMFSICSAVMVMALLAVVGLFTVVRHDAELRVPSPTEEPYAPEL
UniProt Q9GZU1, whole entry, looked up: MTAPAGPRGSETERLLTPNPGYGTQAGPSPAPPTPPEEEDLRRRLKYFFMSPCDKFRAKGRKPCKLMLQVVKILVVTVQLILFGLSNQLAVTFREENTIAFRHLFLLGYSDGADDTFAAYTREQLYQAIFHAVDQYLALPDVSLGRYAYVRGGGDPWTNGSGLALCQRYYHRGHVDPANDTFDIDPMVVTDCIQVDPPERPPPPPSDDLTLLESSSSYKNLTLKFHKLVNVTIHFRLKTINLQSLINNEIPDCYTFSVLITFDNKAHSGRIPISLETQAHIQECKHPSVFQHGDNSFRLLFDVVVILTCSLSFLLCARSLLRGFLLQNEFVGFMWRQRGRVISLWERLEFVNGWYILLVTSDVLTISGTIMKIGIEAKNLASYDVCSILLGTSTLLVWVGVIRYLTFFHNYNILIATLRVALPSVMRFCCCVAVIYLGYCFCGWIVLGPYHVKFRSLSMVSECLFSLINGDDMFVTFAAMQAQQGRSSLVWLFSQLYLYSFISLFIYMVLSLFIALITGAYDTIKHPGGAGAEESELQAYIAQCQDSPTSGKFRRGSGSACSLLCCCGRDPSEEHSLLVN
UniProt Q6P2C8: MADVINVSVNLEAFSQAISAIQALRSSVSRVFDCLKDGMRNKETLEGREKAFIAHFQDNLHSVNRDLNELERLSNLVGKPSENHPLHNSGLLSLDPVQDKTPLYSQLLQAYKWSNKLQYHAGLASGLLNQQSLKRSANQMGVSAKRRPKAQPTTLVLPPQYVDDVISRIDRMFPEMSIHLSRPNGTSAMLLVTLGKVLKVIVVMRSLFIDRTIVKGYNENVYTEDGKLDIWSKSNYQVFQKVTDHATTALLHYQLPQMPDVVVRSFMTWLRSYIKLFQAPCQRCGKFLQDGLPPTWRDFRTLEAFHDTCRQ
UniProt O95402: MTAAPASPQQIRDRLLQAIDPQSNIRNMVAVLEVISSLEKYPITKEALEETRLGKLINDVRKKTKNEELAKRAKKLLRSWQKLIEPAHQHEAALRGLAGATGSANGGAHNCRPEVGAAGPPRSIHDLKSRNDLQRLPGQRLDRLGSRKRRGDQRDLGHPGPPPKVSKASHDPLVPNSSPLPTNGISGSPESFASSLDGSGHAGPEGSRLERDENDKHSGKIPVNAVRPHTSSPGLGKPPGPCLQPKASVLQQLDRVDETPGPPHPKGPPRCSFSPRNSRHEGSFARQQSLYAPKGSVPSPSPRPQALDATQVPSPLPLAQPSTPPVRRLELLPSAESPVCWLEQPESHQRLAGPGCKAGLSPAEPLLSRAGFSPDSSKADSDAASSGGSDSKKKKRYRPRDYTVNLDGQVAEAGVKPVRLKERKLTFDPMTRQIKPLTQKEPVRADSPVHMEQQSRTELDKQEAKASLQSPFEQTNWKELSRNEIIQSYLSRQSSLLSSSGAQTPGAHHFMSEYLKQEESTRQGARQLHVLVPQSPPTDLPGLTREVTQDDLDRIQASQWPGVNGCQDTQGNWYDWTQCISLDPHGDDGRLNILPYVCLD
UniProt Q14676: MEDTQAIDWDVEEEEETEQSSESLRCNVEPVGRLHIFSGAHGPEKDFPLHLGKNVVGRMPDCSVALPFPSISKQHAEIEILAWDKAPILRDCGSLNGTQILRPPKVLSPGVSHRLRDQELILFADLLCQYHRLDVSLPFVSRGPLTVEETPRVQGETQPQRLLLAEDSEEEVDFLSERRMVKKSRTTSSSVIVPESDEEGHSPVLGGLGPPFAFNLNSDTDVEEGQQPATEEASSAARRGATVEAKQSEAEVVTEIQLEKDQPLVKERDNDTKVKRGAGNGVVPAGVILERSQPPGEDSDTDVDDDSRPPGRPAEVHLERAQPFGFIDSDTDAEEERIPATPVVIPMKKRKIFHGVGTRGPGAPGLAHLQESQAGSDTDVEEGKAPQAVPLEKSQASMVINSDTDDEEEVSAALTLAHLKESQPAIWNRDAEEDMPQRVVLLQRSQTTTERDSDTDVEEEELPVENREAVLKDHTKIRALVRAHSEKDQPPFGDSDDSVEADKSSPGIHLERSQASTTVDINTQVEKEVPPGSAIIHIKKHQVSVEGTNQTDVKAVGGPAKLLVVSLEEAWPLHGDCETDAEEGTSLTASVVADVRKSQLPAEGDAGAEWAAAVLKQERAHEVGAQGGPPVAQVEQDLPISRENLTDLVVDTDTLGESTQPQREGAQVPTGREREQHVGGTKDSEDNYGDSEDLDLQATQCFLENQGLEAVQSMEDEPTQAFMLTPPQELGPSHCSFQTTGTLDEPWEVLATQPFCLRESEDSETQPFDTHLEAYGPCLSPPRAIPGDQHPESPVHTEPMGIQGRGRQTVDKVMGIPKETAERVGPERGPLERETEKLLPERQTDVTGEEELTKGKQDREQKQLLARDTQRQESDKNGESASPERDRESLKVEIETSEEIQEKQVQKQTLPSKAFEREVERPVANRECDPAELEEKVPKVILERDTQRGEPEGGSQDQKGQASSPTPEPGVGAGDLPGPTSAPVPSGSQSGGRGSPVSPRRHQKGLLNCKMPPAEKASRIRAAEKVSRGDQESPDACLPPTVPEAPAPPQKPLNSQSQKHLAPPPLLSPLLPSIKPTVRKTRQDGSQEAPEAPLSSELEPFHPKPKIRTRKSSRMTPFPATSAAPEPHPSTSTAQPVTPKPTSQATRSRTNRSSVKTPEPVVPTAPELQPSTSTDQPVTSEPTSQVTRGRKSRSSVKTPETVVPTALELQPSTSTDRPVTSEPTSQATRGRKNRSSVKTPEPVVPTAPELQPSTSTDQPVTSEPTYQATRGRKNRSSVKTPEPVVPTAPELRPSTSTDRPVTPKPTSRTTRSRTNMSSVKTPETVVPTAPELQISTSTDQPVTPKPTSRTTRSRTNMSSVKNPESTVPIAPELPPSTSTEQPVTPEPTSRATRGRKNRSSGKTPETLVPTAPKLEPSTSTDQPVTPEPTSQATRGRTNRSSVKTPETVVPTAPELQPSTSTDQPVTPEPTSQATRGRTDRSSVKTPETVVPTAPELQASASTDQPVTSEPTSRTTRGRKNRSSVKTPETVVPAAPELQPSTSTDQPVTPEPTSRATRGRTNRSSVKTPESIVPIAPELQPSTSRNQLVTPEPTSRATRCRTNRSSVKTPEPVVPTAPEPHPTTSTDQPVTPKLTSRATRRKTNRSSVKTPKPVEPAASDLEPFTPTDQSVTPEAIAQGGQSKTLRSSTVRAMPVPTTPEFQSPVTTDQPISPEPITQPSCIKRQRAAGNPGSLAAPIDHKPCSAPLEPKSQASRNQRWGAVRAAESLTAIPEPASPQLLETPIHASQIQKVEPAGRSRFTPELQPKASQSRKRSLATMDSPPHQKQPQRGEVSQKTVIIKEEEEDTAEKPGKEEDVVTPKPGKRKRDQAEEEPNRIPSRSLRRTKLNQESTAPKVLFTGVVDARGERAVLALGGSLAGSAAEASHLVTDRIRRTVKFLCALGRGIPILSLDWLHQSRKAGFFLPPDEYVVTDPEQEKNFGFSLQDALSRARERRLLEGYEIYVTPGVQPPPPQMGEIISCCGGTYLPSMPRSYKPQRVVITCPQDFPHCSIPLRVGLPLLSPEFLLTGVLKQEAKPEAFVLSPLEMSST

Tests used:
Experiment in all cases: log2 fold change, soluble protein after heating vs DMSO (PISA); higher = thermal stabilisation; K562 cells, 10 uM, 30 min; active = over 0.2 and 3.5 SD of the protein, either way, in both replicates (recomputed)
[1] = compound: CN1CCN(CCOc2cc(OC3CCOCC3)c3c(Nc4c(Cl)ccc5c4OCO5)ncnc3c2)CC1 [saracatinib]
Procedure, shortened: (§1)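 Thermal stability values are relative to control samples and come from duplicates. They are expressed as log2 fold changes. For measurement, K562 cells (2×10^6 cells/mL) received 10 μM compound for 30 min, and aliquots were heated for 3 min over 48°C-58°C, pooled, and extracted at 4°C in PBS with 0.5% NP-40. Soluble protein, the supernatant after 21,000xg for 90 min, was quantified by TMTpro 16plex LC-MS/MS with equalised channel sums.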

[2] = compound: CN1CCN(c2nc(C3=C(c4c[nH]c5ccccc45)C(=O)NC3=O)c3ccccc3n2)CC1 [sotrastaurin]
Procedure, shortened: as §1

[3] = compound: CN1CCc2c(c3ccccc3n2Cc2ccc(C(=O)NO)cc2)C1 [Tubastatin A]
Procedure, shortened: as §1

[4] = compound: CNC(=O)C1=CC=CC=C1NC2=NC(=NC=C2Cl)NC3=C(C=C(C=C3)N4CCOCC4)OC
Procedure, shortened: as §1

[5] = compound: CNC(=O)c1ccc(Nc2ncc(C(F)(F)F)c(NCc3nccnc3N(C)S(C)(=O)=O)n2)cc1 [defactinib]
Procedure, shortened: as §1

[6] = compound: CNCc1ccc(-c2[nH]c3cc(F)cc4c3c2CCNC4=O)cc1 [rucaparib]
Procedure, shortened: as §1

[7] = compound: CNc1nc(-c2ccc3c(N)n[nH]c3c2)cc(N2C[C@@H](C(=O)NC3CCCCC3)CC[C@H]2C)n1
Procedure, shortened: as §1

[8] = compound: COC(=O)N[C@@H](C)CNc1nccc(-c2cn(C(C)C)nc2-c2cc(Cl)cc(NS(C)(=O)=O)c2F)n1 [encorafenib]
Procedure, shortened: as §1

[9] = compound: COC(=O)[C@H](CCSC)NC(=O)C1=C(C=C(C=C1)NC[C@H](CS)N)C2=CC=CC=C2
Procedure, shortened: as §1

[10] = compound: COC1=CC=C(C=C1)CN2C=CC3=C2C=C(C=C3)C(=O)NO
Procedure, shortened: as §1

[11] = compound: CON(C)C(=O)N1N=C(c2cc(F)ccc2F)S[C@@]1(CCCN)c1ccccc1 [filanesib]
Procedure, shortened: as §1

[12] = compound: CO[C@H]1C[C@@H]2CC[C@@H](C)[C@@](O)(O2)C(=O)C(=O)N2CCCC[C@H]2C(=O)O[C@H]([C@H](C)C[C@@H]2CC[C@H](n3cnnn3)[C@H](OC)C2)CC(=O)[C@H](C)/C=C(\C)[C@@H](O)[C@@H](OC)C(=O)[C@H](C)C[C@H](C)/C=C/C=C/C=C/1C [zotarolimus]
Procedure, shortened: as §1

[13] = compound: COc1cc(C(=O)O)ccc1NC(=O)[C@@H]1N[C@@H](CC(C)(C)C)[C@](C#N)(c2ccc(Cl)cc2F)[C@H]1c1cccc(Cl)c1F [idasanutlin]
Procedure, shortened: as §1

[14] = compound: COc1cc(Nc2ncc3c(n2)-c2ccc(Cl)cc2C(c2c(F)cccc2OC)=NC3)ccc1C(=O)O [alisertib]
Procedure, shortened: as §1

[15] = compound: COc1cc2nc(-c3cc(F)ccc3O)nc(N[C@@H]3CNC[C@H]3C(C)(C)O)c2cc1OC
Procedure, shortened: as §1

[16] = compound: COc1cc2ncnc(Nc3ccc(F)c(Cl)c3)c2cc1OCCCN1CCOCC1 [gefitinib]
Procedure, shortened: as §1

[17] = compound: COc1cccc2cc(-c3nc([C@H]4CC[C@H](C(=O)O)CC4)n4ncnc(N)c34)[nH]c12
Procedure, shortened: as §1

[18] = compound: CS(=O)(=O)CCNCc1ccc(-c2ccc3ncnc(Nc4ccc(OCc5cccc(F)c5)c(Cl)c4)c3c2)o1 [lapatinib]
Procedure, shortened: as §1

[19] = compound: CS(=O)(=O)N1CCN(Cc2cc3nc(-c4cccc5[nH]ncc45)nc(N4CCOCC4)c3s2)CC1 [pictilisib]
Procedure, shortened: as §1

[20] = compound: CN1CC[C@H](c2c(O)cc(O)c3c(=O)cc(-c4ccccc4Cl)oc23)[C@H](O)C1 [alvocidib]
Procedure, shortened: as §1

Measured: log2 fold change

METTL18 (UniProt O95568)
inactive: [1] 0.024 | [2] 0.066 | [3] -0.037 | [4] -0.042 | [5] -0.021 | [6] -0.041 | [7] -0.031 | [8] 0.108 | [9] -0.176 | [11] 0.009 | [12] 0.033 | [13] -0.022 | [14] 0.006 | [15] 0.075 | [16] -0.033 | [17] 0.057 | [18] 0.069 | [19] 0.026
active: [10] -0.364

MFAP3 (UniProt P55082)
inactive: [1] 0.088 | [2] 0.019 | [3] 0.068 | [5] 0.306 | [7] 0.002 | [9] -0.189 | [11] -0.092 | [13] 0.192

MED8 isoform 2 (UniProt Q96G25)
inactive: [1] 0.003 | [2] 0.044 | [4] 0.039 | [5] -0.031 | [6] 0.04 | [7] -0.131 | [8] -0.024 | [9] 0.141 | [10] -0.11 | [11] 0.033 | [12] -0.004 | [13] 0.095 | [14] -0.088 | [15] -0.154 | [16] -0.034 | [17] -0.041 | [18] 0.058

MCU (UniProt Q8NE86)
inactive: [1] 0.039 | [2] -0.028 | [3] 0.036 | [4] 0.013 | [5] -0.043 | [6] -0.032 | [7] -0.014 | [8] -0.017 | [9] -0.032 | [10] -0.056 | [11] -0.152 | [12] 0.164 | [13] -0.091 | [14] -0.053 | [15] -0.053 | [16] -0.049 | [17] 0.054 | [18] -0.099 | [19] 0.09

METTL2B (UniProt Q6P1Q9)
inactive: [1] -0.075 | [2] -0.186 | [20] 0.005 | [5] -0.034 | [7] 0.102 | [9] -0.326 | [10] -0.169 | [11] -0.054 | [12] 0.06 | [13] 0.036 | [14] 0.139 | [17] -0.16 | [19] -0.014

MFSD5 isoform 2 (UniProt Q6N075)
inactive: [1] 0.058 | [2] 0.122 | [3] -0.093 | [4] 0.069 | [5] 0.039 | [6] 0.058 | [7] -0.065 | [8] -0.022 | [9] 0.012 | [10] 0.037 | [11] 0.018 | [12] -0.149 | [13] -0.058 | [14] 0.011 | [15] -0.026 | [16] 0.039 | [17] 0.12 | [18] 0.045 | [19] 0.062

MCOLN1 (UniProt Q9GZU1)
inactive: [1] -0.239 | [2] -0.04 | [4] 0.049 | [6] 0.119 | [7] -0.109 | [8] 0.033 | [10] 0.137 | [11] -0.092 | [14] -0.028 | [15] -0.041 | [16] -0.095 | [17] 0.068 | [18] 0.035 | [19] 0.137

Fetched one by one from the entries so far, two records:
MCOLN1 (UniProt Q9GZU1)
inactive: [1] -0.239 | [2] -0.04 | [4] 0.049 | [6] 0.119 | [7] -0.109 | [8] 0.033 | [10] 0.137 | [11] -0.092 | [14] -0.028 | [15] -0.041 | [16] -0.095 | [17] 0.068 | [18] 0.035 | [19] 0.137

MFSD5 isoform 2 (UniProt Q6N075)
inactive: [1] 0.058 | [2] 0.122 | [3] -0.093 | [4] 0.069 | [5] 0.039 | [6] 0.058 | [7] -0.065 | [8] -0.022 | [9] 0.012 | [10] 0.037 | [11] 0.018 | [12] -0.149 | [13] -0.058 | [14] 0.011 | [15] -0.026 | [16] 0.039 | [17] 0.12 | [18] 0.045 | [19] 0.062

The list goes on.

MED27 (UniProt Q6P2C8)
inactive: [1] -0.095 | [2] -0.152 | [20] -0.164 | [4] -0.087 | [7] 0.022 | [11] 0.104 | [12] -0.016 | [13] 0.028 | [14] 0.072 | [16] -0.096 | [17] 0.151 | [19] -0.083

MED26 (UniProt O95402)
inactive: [1] -0.133 | [2] 0.054 | [20] -0.126 | [5] -0.036 | [7] 0 | [9] -0.12 | [10] 0.045 | [11] -0.027 | [12] 0.044 | [13] -0.1 | [15] -0.013 | [18] -0.035 | [19] -0.109

MDC1 (UniProt Q14676)
inactive: [1] -0.194 | [2] -0.003 | [3] 0.011 | [4] -0.162 | [5] -0.012 | [6] 0.082 | [7] 0.119 | [8] 0.075 | [9] -0.067 | [10] -0.055 | [11] 0.223 | [12] 0.005 | [13] 0.283 | [14] -0.028 | [15] -0.01 | [16] 0.032 | [17] -0.045 | [18] 0.077 | [19] 0.08
